Laboratory results reported in the supplement of paper PMC11006884.
Shown are results outside the selection of targets with a hit, which stands elsewhere. The data scatter; read single values as rough. Only a part is listed here, and it is no random draw.

Amino acid sequences for entries named in this document (tags omitted). A change or cut given only in a name is not applied to a line headed by its entry.
UniProt Q15637: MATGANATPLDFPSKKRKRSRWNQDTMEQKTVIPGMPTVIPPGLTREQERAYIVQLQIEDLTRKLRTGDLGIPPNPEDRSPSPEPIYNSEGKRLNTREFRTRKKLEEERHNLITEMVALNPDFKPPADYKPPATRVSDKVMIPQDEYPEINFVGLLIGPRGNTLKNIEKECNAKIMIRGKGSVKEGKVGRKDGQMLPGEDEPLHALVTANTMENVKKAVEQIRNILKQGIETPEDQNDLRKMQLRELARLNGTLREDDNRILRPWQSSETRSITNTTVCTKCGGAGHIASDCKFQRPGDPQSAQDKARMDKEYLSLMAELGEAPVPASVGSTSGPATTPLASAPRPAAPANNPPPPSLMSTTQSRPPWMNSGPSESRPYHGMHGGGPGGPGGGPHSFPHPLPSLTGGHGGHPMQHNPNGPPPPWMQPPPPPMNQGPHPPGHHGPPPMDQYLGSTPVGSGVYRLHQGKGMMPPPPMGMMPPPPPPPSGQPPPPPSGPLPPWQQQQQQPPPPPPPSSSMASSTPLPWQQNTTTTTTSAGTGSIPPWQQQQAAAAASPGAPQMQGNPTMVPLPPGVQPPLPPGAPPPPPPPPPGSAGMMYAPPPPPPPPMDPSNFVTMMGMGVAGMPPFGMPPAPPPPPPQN
UniProt Q15233: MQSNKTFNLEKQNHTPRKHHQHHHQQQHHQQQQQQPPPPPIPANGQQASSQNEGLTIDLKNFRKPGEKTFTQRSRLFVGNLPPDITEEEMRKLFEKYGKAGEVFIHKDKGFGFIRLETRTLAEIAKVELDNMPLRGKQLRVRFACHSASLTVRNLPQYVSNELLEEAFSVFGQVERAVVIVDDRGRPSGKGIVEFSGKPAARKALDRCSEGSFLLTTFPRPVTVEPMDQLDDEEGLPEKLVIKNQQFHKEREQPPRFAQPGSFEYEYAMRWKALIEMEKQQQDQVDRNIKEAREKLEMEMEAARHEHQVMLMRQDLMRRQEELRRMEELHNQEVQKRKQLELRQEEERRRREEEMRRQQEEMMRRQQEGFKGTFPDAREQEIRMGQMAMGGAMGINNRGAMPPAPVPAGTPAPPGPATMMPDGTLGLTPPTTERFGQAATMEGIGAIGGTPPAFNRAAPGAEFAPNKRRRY
UniProt Q2TAA2: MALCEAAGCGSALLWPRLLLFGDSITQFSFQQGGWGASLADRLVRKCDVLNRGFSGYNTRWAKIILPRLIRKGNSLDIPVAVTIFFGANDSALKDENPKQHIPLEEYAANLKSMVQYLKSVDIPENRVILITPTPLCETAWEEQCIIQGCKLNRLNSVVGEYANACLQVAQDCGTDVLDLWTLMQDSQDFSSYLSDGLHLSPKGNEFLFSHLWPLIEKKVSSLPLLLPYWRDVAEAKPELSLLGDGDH
UniProt Q3B726, whole entry, looked up: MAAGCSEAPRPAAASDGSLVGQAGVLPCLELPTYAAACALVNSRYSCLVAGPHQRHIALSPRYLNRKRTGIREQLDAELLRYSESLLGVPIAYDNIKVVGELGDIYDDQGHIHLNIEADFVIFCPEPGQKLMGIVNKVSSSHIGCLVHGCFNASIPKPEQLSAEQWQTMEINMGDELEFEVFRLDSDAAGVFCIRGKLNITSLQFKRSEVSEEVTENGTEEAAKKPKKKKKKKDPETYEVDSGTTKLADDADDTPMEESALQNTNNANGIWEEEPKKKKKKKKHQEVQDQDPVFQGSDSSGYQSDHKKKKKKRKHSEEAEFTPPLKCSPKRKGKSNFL
UniProt Q15437: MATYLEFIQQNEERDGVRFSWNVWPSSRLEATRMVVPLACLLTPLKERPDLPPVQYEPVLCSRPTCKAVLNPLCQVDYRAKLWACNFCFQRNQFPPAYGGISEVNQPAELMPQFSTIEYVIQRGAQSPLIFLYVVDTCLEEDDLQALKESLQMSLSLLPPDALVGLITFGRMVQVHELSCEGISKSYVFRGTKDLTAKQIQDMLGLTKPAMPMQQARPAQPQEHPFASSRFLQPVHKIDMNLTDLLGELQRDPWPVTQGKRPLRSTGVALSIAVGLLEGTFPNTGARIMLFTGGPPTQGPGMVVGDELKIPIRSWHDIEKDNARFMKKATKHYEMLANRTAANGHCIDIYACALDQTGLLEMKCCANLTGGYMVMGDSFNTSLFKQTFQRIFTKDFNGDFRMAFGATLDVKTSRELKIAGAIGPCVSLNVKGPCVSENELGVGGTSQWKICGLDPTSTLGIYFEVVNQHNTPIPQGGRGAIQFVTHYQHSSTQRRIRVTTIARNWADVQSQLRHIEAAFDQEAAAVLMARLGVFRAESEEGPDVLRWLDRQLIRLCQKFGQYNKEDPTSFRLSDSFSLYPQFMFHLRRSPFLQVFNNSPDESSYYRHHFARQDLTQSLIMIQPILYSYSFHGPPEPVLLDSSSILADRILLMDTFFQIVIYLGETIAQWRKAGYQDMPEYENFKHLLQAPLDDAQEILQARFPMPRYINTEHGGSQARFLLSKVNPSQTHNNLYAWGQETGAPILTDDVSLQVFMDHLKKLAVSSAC
UniProt Q16527: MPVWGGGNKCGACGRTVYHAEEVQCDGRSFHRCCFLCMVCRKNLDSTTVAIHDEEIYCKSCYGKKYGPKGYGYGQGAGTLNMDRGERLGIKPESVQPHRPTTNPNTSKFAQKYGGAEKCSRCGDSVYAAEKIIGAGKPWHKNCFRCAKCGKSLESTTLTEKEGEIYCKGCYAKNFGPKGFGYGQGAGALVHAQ
UniProt Q1L5Z9: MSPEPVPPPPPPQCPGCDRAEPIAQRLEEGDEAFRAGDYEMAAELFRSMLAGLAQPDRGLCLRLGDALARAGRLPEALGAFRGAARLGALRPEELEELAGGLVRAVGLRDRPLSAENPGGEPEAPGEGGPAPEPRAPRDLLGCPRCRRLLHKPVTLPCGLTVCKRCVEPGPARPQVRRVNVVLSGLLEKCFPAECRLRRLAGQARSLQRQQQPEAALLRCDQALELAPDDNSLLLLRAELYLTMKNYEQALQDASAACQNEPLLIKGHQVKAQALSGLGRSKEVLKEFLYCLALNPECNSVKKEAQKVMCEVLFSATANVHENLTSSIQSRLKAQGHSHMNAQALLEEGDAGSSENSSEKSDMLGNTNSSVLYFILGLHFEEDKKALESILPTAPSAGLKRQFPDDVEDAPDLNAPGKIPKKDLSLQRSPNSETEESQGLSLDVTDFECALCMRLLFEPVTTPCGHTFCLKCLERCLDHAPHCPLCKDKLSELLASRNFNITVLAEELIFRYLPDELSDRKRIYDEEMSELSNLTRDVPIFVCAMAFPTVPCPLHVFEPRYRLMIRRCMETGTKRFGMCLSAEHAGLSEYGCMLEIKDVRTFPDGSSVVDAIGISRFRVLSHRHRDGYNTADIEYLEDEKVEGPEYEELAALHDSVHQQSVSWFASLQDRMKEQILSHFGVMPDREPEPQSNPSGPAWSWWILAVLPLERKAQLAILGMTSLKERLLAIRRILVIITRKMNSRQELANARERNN
UniProt Q15834: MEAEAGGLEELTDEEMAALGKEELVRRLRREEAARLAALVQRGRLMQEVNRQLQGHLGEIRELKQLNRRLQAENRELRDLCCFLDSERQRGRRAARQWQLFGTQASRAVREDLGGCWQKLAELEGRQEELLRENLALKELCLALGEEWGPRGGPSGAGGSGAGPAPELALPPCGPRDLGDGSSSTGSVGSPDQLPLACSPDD
UniProt Q2TAL8: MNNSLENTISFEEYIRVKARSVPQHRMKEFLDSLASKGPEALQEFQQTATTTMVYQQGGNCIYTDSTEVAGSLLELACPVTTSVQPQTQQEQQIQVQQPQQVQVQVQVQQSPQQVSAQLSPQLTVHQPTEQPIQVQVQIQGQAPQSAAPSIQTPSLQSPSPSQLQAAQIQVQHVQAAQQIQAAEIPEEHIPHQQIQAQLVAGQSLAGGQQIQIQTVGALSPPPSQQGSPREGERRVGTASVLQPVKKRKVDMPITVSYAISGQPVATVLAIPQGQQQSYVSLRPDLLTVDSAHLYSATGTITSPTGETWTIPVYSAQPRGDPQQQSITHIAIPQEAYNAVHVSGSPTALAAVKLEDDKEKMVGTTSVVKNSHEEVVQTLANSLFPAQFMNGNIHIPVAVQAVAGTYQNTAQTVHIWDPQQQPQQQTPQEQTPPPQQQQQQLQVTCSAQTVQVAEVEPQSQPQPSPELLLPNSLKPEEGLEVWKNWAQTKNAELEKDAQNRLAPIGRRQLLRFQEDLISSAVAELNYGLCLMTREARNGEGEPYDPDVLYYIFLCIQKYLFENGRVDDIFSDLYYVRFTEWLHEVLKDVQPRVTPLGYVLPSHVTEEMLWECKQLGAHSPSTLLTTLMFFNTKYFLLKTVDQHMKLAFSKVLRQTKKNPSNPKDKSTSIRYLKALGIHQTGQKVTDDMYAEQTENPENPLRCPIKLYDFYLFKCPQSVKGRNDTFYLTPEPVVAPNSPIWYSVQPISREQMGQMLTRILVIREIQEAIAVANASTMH
UniProt Q15048: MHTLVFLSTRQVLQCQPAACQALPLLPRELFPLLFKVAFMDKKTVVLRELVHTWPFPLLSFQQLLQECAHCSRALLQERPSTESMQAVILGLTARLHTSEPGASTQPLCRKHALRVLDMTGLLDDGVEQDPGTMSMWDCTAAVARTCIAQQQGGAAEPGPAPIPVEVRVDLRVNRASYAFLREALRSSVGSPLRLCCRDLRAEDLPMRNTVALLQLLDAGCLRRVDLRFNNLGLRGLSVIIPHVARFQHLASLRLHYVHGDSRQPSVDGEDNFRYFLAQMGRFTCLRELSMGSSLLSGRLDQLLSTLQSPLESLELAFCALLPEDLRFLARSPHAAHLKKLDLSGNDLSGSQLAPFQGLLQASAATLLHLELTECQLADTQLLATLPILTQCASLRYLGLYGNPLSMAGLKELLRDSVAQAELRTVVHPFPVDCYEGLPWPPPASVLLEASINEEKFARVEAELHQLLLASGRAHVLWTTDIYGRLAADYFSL
UniProt Q15185: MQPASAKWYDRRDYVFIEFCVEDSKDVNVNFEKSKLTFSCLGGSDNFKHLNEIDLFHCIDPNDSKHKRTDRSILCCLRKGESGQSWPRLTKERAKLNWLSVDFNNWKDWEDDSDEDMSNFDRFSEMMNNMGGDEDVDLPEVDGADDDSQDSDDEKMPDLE
UniProt Q29RF7: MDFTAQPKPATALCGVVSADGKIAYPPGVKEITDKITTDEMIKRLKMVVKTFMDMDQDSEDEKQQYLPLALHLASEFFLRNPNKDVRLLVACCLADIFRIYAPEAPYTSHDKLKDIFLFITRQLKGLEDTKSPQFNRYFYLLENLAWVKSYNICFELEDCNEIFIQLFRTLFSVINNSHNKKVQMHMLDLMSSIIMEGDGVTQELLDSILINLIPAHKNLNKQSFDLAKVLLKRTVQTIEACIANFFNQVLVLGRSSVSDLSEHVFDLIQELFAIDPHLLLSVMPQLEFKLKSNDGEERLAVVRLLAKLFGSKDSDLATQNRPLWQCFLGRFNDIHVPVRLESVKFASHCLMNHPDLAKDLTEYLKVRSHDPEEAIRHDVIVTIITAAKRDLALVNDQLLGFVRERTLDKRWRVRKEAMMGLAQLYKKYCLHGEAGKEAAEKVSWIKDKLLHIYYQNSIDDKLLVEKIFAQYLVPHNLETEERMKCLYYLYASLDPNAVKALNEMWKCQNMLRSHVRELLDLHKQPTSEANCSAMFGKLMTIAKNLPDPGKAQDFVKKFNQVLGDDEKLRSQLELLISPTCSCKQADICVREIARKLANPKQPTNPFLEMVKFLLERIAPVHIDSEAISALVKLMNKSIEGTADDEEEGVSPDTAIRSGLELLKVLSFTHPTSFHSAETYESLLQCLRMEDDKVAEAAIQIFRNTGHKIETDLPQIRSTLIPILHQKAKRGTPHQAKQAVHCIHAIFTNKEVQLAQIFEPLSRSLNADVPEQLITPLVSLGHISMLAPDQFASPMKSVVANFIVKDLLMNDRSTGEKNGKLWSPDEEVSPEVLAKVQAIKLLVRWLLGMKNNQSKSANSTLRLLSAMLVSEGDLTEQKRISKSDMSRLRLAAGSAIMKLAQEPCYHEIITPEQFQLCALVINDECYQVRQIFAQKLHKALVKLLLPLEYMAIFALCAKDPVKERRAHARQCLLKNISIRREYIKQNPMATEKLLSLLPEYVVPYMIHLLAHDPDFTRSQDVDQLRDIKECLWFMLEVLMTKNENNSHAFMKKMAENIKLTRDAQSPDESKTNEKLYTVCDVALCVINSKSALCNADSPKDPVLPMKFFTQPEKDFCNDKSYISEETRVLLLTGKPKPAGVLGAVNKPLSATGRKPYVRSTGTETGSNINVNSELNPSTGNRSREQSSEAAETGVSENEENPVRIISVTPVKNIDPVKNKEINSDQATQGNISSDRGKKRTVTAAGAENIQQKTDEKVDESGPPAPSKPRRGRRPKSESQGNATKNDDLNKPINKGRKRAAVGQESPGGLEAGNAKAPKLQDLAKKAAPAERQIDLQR

Compound: COC(=O)/C=C/c1ccccc1 [methyl cinnamate]
Assay: log2 ratio of iodoacetamide-alkyne labeling of the cysteine site, DMSO over compound (competition); higher = stronger covalent engagement of the cysteine by the compound, active = 1 or more
Settings: 500 µM; treatment time 1 h; system: HEK293T cell lysate
Procedure, shortened: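 Electrophile (500 µM) or vehicle was added to HEK293T lysate (2 mg/mL) for 1 h at ambient temperature before iodoacetamide alkyne labelling (1 h) and click coupling to sCIP-TMT reagents. After pooling, overnight trypsin digestion at 37 °C, streptavidin enrichment and acid elution, peptides were measured by Orbitrap Eclipse LC-MS/MS with FAIMS and quantified in FragPipe. Each cysteine's log2 competition ratio compares mean control-channel with mean compound-channel reporter intensity, control over compound. Data came from duplicate channels across three replicates, excluding cysteines quantified in only one replicate.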

| Target | log2 ratio of iodoacetamide-alkyne labeling |
| --- | --- |
| UBE3C C158 (UniProt Q15386) | inactive: 0.0777 |
| SF1 C282 (UniProt Q15637) | inactive: 0.165 |
| NONO C208 (UniProt Q15233) | inactive: -0.0736 |
| IAH1 C4 (UniProt Q2TAA2) | inactive: 0.429 |
| TWISTNB C28 (UniProt Q3B726) | inactive: 0.461 |
| SEC23B C434 (UniProt Q15437) | inactive: 0.166 |
| CSRP2 C58 (UniProt Q16527) | inactive: 0.0655 |
| SETDB1 C92 (UniProt Q15047) | inactive: 0.189 |
| LONRF2 C166 (UniProt Q1L5Z9) | inactive: -0.0253 |
| CCDC85B C173 (UniProt Q15834) | inactive: 0.315 |
| QRICH1 C701 (UniProt Q2TAL8) | inactive: 0.496 |
| LRRC14 C68 (UniProt Q15048) | inactive: 0.451 |
| FSCN1 C80 (UniProt Q16658) | inactive: 0.153 |
| RBBP7 C166 (UniProt Q16576) | inactive: 0.0862 |
| PTGES3 C40 (UniProt Q15185) | inactive: 0.00949 |
| PDS5A C589 (UniProt Q29RF7) | inactive: 0.183 |

2 entries from above, reformatted:
IAH1 C4 (UniProt Q2TAA2)
  log2 ratio of iodoacetamide-alkyne labeling: inactive: 0.429
TWISTNB C28 (UniProt Q3B726)
  log2 ratio of iodoacetamide-alkyne labeling: inactive: 0.461
